Assay results: patent publication US9981005
These are yes or no findings as the source states them, for the method shown. Binding seen in cells or lysates may run through a third protein. Some results given as binding are weak or reduced against the parent protein; the word gives no strength. Sequences can lack the tags named with a protein.

By UniProt entry, the sequences of proteins in these tests, tags left out. Where a name states a change or a piece, a line headed by the entry shows the natural chain unless it says otherwise.
UniProt Q969H0: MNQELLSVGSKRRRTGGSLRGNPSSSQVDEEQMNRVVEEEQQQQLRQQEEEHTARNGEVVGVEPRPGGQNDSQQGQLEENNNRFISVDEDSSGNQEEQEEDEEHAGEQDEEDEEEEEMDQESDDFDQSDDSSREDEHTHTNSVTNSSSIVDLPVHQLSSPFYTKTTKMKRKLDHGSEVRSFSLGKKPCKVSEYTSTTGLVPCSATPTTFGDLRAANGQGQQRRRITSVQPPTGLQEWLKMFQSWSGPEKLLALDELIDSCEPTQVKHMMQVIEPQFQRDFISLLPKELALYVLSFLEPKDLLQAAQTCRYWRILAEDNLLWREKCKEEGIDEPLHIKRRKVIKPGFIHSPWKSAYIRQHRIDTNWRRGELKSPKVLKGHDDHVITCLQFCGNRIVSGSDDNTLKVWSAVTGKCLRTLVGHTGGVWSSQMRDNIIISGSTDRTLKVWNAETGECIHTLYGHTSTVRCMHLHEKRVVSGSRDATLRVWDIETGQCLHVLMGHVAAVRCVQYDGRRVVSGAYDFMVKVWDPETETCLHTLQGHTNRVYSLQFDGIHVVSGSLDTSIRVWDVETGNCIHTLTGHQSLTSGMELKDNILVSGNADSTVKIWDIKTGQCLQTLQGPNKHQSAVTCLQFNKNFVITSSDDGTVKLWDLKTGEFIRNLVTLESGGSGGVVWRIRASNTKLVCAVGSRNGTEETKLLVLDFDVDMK

B1: GFP-tagged DISC1 (protein, not shown: large carriers)
chain: MPGGGPQGAPAAAGGGGVSHRAGSRDCLPPAACFRRRRLARRPGYMRSSTGPGIGFLSPAVGTLFRFPGGVSGEESHHSESRARQCGLDSRGLLVRSPVSKSAAAPTVTSVRGTSAHFGIQLRGGTRLPDRLSWPCGPGSAGWQQEFAAMDSSETLDASWEAACSDGARRVRAAGSLPSAELSSNSCSPGCGPEVPPTPPGSHSAFTSSFSFIRLSLGSAGERGEAEGCPPSREAESHCQSPQEMGAKAASLDGPHEDPRCLSRPFSLLATRVSADLAQAARNSSRPERDMHSLPDMDPGSSSSLDPSLAGCGGDGSSGSGDAHSWDTLLRKWEPVLRDCLLRNRRQMEVISLRLKLQKLQEDAVENDDYDKAETLQQRLEDLEQEKISLHFQLPSRQPALSSFLGHLAAQVQAALRRGATQQASGDDTHTPLRMEPRLLEPTAQDSLHVSITRRDWLLQEKQQLQKEIEALQARMFVLEAKDQQLRREIEEQEQQLQWQGCDLTPLVGQLSLGQLQEVSKALQDTLASAGQIPFHAEPPETIRSLQERIKSLNLSLKEITTKVCMSEKFCSTLRKKVNDIETQLPALLEAKMHAISGNHFWTAKDLTEEIRSLTSEREGLEGLLSKLLVLSSRNVKKLGSVKEDYNRLRREVEHQETAYETSVKENTMKYMETLKNKLCSCKCPLLGKVWEADLEACRLLIQSLQLQEARGSLSVEDERQMDDLEGAAPPIPPRLHSEDKRKTPLKVLEEWKTHLIPSLHCAGGEQKEESYILSAELGEKCEDIGKKLLYLEDQLHTAIHSHDEDLIQSLRRELQMVKETLQAMILQLQPAKEAGEREAAASCMTAGVHEAQA
B2: V5-tagged DISC1 (protein, not shown: small tags and cut ends)
chain: MPGGGPQGAPAAAGGGGVSHRAGSRDCLPPAACFRRRRLARRPGYMRSSTGPGIGFLSPAVGTLFRFPGGVSGEESHHSESRARQCGLDSRGLLVRSPVSKSAAAPTVTSVRGTSAHFGIQLRGGTRLPDRLSWPCGPGSAGWQQEFAAMDSSETLDASWEAACSDGARRVRAAGSLPSAELSSNSCSPGCGPEVPPTPPGSHSAFTSSFSFIRLSLGSAGERGEAEGCPPSREAESHCQSPQEMGAKAASLDGPHEDPRCLSRPFSLLATRVSADLAQAARNSSRPERDMHSLPDMDPGSSSSLDPSLAGCGGDGSSGSGDAHSWDTLLRKWEPVLRDCLLRNRRQMEVISLRLKLQKLQEDAVENDDYDKAETLQQRLEDLEQEKISLHFQLPSRQPALSSFLGHLAAQVQAALRRGATQQASGDDTHTPLRMEPRLLEPTAQDSLHVSITRRDWLLQEKQQLQKEIEALQARMFVLEAKDQQLRREIEEQEQQLQWQGCDLTPLVGQLSLGQLQEVSKALQDTLASAGQIPFHAEPPETIRSLQERIKSLNLSLKEITTKVCMSEKFCSTLRKKVNDIETQLPALLEAKMHAISGNHFWTAKDLTEEIRSLTSEREGLEGLLSKLLVLSSRNVKKLGSVKEDYNRLRREVEHQETAYETSVKENTMKYMETLKNKLCSCKCPLLGKVWEADLEACRLLIQSLQLQEARGSLSVEDERQMDDLEGAAPPIPPRLHSEDKRKTPLKVLEEWKTHLIPSLHCAGGEQKEESYILSAELGEKCEDIGKKLLYLEDQLHTAIHSHDEDLIQSLRRELQMVKETLQAMILQLQPAKEAGEREAAASCMTAGVHEAQA

Target: FLAG-tagged FBXW7 (Homo sapiens (Human)) (UniProt Q969H0)
Test: co-immunoprecipitation from HEK293 lysate, anti-FLAG beads, Western blot

| Binder | binding |
| --- | --- |
| B1 | binds |
| B2 | binds |
